Data from the supplement of paper PMC10849652.
This is one part of the list.

Chains of the proteins cited; added tags and fusions are not shown. Lines headed by an entry give the natural chain unless they say otherwise; changes in a name come on top.
UniProt P84101: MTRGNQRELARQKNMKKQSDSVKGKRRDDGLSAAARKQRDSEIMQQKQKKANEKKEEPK
UniProt P55011: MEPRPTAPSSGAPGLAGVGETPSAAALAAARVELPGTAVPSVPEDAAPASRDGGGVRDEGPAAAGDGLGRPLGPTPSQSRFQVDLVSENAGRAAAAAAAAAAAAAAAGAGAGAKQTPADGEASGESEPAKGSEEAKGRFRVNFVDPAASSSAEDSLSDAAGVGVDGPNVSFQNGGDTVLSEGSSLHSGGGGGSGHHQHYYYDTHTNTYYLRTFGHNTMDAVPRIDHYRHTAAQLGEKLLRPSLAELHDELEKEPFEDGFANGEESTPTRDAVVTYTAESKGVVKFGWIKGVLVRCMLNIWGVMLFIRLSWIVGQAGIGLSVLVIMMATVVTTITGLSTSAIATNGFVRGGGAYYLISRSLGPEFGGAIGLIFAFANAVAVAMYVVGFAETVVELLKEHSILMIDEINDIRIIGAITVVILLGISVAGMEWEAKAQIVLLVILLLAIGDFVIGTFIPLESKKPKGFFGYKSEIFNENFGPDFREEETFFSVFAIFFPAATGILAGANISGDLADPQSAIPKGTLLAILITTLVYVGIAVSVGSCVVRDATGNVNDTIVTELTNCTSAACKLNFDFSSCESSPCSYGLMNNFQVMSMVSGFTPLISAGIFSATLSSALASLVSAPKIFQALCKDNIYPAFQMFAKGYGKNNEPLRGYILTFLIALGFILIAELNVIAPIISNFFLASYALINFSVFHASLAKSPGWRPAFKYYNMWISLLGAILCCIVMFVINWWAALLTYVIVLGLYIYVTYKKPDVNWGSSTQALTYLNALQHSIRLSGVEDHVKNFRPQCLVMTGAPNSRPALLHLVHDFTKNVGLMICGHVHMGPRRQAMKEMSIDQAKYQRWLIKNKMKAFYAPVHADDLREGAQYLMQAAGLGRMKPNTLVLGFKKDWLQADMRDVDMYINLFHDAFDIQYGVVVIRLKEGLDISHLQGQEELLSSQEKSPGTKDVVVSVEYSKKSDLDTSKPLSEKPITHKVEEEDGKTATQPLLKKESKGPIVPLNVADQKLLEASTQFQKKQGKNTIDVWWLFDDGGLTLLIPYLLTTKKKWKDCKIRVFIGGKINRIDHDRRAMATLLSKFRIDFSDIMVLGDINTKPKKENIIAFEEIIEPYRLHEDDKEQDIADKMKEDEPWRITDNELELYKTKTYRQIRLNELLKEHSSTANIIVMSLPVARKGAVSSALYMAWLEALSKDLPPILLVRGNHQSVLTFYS
UniProt Q8N697: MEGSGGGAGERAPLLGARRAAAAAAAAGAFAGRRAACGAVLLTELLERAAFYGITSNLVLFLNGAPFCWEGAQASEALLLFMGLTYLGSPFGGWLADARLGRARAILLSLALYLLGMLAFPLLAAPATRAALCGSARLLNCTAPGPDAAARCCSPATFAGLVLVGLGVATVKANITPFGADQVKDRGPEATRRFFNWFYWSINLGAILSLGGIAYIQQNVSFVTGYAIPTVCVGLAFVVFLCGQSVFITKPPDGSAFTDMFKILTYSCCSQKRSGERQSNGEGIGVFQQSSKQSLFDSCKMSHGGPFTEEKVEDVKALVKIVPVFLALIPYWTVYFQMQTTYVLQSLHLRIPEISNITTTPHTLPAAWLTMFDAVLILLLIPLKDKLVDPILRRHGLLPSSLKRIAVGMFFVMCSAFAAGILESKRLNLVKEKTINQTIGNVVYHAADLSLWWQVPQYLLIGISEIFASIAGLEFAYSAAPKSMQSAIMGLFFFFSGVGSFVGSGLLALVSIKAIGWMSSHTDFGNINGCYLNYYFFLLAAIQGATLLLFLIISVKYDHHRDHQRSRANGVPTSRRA
UniProt Q6P4A7: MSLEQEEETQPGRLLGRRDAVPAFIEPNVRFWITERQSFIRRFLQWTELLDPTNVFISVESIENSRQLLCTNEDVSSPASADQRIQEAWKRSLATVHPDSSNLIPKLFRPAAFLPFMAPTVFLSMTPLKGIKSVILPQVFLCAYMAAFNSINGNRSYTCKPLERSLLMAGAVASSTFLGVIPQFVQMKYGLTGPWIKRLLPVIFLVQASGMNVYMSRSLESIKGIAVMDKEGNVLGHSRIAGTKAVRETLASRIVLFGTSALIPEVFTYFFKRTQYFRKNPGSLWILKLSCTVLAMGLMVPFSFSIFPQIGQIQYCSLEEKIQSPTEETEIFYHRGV
UniProt Q96ES7: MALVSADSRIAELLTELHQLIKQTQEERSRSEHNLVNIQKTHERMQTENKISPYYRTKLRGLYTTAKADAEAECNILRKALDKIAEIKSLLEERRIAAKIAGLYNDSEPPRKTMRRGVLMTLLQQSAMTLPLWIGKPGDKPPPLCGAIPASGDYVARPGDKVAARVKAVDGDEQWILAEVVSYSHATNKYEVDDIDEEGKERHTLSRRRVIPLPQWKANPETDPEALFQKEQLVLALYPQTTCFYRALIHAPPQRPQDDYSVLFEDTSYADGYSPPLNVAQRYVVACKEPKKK
UniProt P55822: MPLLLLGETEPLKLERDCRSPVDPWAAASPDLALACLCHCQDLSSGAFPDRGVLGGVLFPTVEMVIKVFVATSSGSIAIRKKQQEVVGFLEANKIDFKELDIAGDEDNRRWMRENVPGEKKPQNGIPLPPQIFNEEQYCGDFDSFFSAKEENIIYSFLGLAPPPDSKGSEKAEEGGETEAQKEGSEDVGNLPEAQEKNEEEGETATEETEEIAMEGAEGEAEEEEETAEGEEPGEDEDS
UniProt P78314: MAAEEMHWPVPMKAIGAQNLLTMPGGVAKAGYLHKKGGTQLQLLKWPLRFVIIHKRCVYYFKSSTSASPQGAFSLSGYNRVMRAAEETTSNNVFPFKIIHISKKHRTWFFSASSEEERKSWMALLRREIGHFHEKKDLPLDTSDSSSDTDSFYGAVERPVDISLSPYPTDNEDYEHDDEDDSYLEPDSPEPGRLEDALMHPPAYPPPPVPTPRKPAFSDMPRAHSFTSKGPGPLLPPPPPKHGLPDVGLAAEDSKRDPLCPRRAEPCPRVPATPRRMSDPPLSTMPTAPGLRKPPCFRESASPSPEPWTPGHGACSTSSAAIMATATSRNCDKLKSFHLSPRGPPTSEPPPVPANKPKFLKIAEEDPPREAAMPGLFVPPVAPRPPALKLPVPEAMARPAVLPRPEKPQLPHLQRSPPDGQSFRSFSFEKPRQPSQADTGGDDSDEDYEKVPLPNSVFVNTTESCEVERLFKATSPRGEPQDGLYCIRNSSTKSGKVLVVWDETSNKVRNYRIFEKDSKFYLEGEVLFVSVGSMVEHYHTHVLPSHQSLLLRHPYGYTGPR
UniProt Q8WUM9: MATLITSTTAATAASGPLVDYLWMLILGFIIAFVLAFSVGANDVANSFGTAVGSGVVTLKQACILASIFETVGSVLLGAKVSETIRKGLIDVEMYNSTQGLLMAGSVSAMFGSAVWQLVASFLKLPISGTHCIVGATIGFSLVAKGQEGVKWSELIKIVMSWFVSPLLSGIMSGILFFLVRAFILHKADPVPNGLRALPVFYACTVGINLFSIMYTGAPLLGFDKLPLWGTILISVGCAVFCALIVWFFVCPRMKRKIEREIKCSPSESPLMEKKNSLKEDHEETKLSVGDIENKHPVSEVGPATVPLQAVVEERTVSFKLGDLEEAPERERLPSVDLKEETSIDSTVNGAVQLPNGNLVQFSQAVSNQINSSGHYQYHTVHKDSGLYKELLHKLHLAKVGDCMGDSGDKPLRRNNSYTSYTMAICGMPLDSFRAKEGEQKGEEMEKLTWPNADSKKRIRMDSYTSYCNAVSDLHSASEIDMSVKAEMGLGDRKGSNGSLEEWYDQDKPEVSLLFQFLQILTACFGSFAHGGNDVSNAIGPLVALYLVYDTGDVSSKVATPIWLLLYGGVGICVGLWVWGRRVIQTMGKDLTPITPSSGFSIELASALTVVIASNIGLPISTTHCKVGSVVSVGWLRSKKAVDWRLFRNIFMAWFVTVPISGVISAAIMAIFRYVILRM
UniProt Q9H9B4: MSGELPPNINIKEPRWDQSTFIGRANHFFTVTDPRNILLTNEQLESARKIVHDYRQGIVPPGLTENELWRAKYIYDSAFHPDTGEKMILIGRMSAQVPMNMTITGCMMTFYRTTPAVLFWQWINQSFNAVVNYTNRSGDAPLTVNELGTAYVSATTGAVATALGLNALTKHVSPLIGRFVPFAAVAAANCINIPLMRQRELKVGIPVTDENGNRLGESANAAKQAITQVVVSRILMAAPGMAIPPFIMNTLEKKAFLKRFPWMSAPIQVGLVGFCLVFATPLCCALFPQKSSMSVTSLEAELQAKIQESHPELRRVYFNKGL
UniProt Q8NC51: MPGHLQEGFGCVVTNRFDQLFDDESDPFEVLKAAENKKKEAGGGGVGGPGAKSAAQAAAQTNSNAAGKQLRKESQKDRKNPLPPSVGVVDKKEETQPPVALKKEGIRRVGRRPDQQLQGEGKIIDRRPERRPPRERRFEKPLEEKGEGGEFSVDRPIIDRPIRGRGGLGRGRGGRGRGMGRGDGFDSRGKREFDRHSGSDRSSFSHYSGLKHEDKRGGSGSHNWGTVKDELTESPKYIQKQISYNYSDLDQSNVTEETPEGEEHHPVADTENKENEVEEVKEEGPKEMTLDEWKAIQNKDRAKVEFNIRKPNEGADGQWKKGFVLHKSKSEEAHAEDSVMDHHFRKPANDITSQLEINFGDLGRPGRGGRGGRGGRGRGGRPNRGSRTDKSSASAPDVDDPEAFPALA
UniProt Q9NRA2: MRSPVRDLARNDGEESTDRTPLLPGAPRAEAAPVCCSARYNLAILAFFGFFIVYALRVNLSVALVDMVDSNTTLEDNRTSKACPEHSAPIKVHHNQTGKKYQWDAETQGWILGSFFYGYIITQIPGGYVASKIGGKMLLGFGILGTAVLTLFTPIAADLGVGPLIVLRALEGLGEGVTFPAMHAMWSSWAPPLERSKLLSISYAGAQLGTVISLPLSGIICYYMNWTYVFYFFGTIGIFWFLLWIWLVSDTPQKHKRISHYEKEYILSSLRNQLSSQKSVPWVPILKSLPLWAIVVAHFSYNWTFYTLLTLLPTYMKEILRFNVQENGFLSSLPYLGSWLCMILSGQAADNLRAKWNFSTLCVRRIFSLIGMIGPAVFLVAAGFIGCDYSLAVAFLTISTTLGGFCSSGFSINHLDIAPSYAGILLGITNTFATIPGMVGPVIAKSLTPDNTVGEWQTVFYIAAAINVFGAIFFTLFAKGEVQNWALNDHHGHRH
UniProt Q9UGK8: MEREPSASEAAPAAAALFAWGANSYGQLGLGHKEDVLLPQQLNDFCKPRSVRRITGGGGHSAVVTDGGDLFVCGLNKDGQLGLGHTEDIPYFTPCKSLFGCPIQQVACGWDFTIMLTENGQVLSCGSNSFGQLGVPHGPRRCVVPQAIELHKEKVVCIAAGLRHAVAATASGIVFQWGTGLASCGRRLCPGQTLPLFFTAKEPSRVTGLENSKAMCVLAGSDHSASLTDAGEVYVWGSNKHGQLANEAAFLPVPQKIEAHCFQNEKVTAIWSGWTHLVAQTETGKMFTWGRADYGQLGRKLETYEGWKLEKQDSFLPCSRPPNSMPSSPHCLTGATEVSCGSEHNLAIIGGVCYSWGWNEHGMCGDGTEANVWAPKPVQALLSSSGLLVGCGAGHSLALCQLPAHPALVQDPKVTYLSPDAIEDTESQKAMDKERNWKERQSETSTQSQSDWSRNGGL
UniProt P08697: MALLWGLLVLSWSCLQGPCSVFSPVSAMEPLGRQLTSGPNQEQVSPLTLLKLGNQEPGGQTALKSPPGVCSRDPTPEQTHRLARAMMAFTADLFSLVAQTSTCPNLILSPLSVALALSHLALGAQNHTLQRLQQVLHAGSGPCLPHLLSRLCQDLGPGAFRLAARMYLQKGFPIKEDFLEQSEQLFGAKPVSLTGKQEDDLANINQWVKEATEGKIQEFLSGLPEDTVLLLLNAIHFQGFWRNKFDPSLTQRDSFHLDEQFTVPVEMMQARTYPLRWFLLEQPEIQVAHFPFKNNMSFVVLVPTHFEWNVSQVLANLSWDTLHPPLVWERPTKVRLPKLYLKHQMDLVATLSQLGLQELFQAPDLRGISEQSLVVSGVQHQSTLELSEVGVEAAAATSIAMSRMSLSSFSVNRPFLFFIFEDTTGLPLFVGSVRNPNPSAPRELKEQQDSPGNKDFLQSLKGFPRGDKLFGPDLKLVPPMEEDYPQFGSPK
UniProt P01008, whole entry, looked up: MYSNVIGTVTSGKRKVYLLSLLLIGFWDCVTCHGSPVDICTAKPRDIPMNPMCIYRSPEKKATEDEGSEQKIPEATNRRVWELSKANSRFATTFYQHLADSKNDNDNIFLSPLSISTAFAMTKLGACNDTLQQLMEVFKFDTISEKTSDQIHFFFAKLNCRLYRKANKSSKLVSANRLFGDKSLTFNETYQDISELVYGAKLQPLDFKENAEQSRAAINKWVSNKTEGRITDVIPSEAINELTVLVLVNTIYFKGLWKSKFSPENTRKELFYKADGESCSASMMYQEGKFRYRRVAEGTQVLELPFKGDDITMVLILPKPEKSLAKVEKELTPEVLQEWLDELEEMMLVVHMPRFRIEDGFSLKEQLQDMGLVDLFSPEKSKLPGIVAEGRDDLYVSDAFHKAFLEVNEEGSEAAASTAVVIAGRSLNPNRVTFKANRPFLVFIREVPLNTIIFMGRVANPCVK

Experiments:
Test in all cases: log2 fold change, soluble protein after heating vs DMSO (PISA); higher = thermal stabilisation; K562 lysate, 10 uM; active = over 0.2 and 3.5 SD of the protein, either way, in both replicates (recomputed)
[1] = compound: C1=CC=C(C=C1)[C@H](COC2=CC3=C(C=C2)NC(=O)N3)NC(=O)C4=CC=CN(C4=O)CC5=CC(=C(C=C5)F)F
In short: (§1)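 Quantification was by TMTpro 16plex LC-MS/MS with equalised channel sums, applied to the supernatant after 21,000xg for 90 min. Samples were crude K562 extract at 1 mg/mL protein in PBS pH 7.4 with 1 mM MgCl2, treated with 10 μM compound for 30 min, heated for 3 min across 48°C-58°C, pooled and brought to 0.5% NP-40 at 4°C. Values are log-two fold changes in thermal stability relative to solvent controls, from duplicates.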

[2] = compound: CC1=C(SC2=C1C(=N[C@H](C3=NN=C(N32)C)CC(=O)N)C4=CC=C(C=C4)Cl)C
In short: as §1

[3] = compound: CC1=C2C(=CC=C1)N=C(N(C2=O)C3=CC=CC=C3C)CN4C=NC5=C(N=CN=C54)N
In short: as §1

[4] = compound: Cc1sc2c(c1C)C(c1ccc(Cl)cc1)=N[C@@H](CC(=O)OC(C)(C)C)c1nnc(C)n1-2
In short: as §1

[5] = compound: c1ccc([C@@H]2C[C@H]2NC2CCNCC2)cc1
In short: as §1

Measured: log2 fold change

SERF2 (UniProt P84101)
inactive: [1] 0.095 | [2] -0.019 | [3] -0.126 | [4] -0.126 | [5] -0.011

SKA2 (UniProt Q8WVK7)
inactive: [1] -0.013 | [2] -0.038 | [3] 0.031 | [4] -0.004 | [5] 0.033

SERPINB6, A0A087X1N8
inactive: [1] 0.032 | [2] -0.04 | [3] -0.025 | [4] -0.012 | [5] -0.034

SLC11A2 isoform 3 (UniProt P49281)
inactive: [1] -0.081 | [2] -0.017 | [3] 0.016 | [4] -0.01 | [5] 0.003

SIL1 (UniProt Q9H173)
inactive: [1] 0.06 | [2] 0.079 | [3] -0.004 | [4] -0.001 | [5] -0.043

SH3BGRL (UniProt O75368)
inactive: [1] 0.013 | [2] -0.012 | [3] -0.022 | [4] 0.009 | [5] -0.014

SERINC3 (UniProt Q13530)
inactive: [1] 0.109 | [2] -0.016 | [3] 0.028 | [4] -0.056 | [5] -0.175

SFT2D2 (UniProt O95562)
inactive: [1] -0.01 | [2] 0.058 | [3] -0.037 | [4] 0.065 | [5] -0.009

SLC12A2 (UniProt P55011)
inactive: [1] -0.056 | [2] 0.011 | [3] -0.049 | [4] -0.053 | [5] 0.106

SLC20A2 (UniProt Q08357)
inactive: [1] 0.062 | [2] 0.054 | [3] 0.202 | [4] -0.066 | [5] 0.06

SERPINB13 (UniProt Q9UIV8)
inactive: [1] -0.158 | [2] 0.232

SETDB1 (UniProt Q15047)
inactive: [1] 0.016 | [2] 0.053 | [3] 0.04 | [4] 0.018 | [5] -0.057

SH3BGRL2 (UniProt Q9UJC5)
inactive: [1] 0.048 | [2] 0.085 | [3] -0.027 | [4] -0.001 | [5] 0.083

SLC15A4 (UniProt Q8N697)
inactive: [1] -0.011 | [2] -0.006 | [3] 0.074 | [4] 0.01 | [5] 0.05

SFXN4 (UniProt Q6P4A7)
inactive: [1] 0.027 | [2] -0.054 | [3] -0.04 | [4] 0.002 | [5] 0.063

SHTN1 (UniProt A0MZ66)
inactive: [1] -0.001 | [2] 0.041 | [3] -0.002 | [4] -0.026 | [5] -0.015

SF3B2 (UniProt Q13435)
inactive: [1] 0.029 | [2] 0.021 | [3] 0.017 | [4] -0.012 | [5] -0.025

SFN (UniProt P31947)
inactive: [1] 0.039 | [2] -0.033 | [3] -0.023 | [4] 0.041 | [5] 0.046

SLAIN2 (UniProt Q9P270)
inactive: [1] 0.031 | [2] -0.031 | [3] 0.025 | [4] -0.011 | [5] -0.016

SH2D3A (UniProt Q9BRG2)
inactive: [1] 0 | [2] -0.234

SLC12A4 (UniProt Q9UP95)
inactive: [1] 0.1 | [2] 0.048 | [3] -0.078 | [4] 0.036 | [5] 0.054

SHMT2 (UniProt G3V2Y4)
inactive: [1] -0.058 | [2] 0.165

SF3B5 (UniProt Q9BWJ5)
inactive: [1] 0.024 | [2] -0.034 | [3] 0.006 | [4] -0.031 | [5] 0.138

SETD1B (UniProt Q9UPS6)
inactive: [1] -0.089 | [2] 0.03 | [3] 0.017 | [4] -0.041 | [5] -0.054

SGF29 (UniProt Q96ES7)
inactive: [1] 0.031 | [2] 0.044 | [3] -0.121 | [4] -0.052 | [5] 0.03

SLC10A7 isoform 1 (UniProt Q0GE19)
inactive: [1] -0.033 | [2] 0.015 | [3] 0.015 | [4] 0.075 | [5] -0.13

SET isoform 2 (UniProt Q01105)
inactive: [1] 0.016 | [2] 0.011 | [3] -0.041 | [4] -0.02 | [5] -0.005

SLC12A9 (UniProt Q9BXP2)
inactive: [1] -0.016 | [2] -0.022 | [3] 0.041 | [4] -0.042 | [5] -0.008

SH3BGR (UniProt P55822)
inactive: [1] 0.111 | [2] -0.025 | [3] 0.017 | [4] 0.075 | [5] -0.014

SGO2 (UniProt Q562F6)
inactive: [1] 0.038 | [2] -0.058

SLBP (UniProt Q14493)
inactive: [1] 0.044 | [2] 0.024 | [3] 0.056 | [4] 0.061 | [5] 0.036

SIGMAR1 (UniProt Q99720)
inactive: [1] -0.025 | [2] -0.046 | [3] -0.034 | [4] 0.018 | [5] -0.124

SKAP2 (UniProt O75563)
inactive: [1] -0.038 | [2] 0.008 | [3] 0.022 | [4] -0.009 | [5] -0.039

SF3A2 (UniProt Q15428)
inactive: [1] -0.036 | [2] 0.044 | [3] -0.035 | [4] 0.037 | [5] -0.049

SGO1 (UniProt Q5FBB7)
inactive: [1] 0.061 | [2] -0.004 | [3] 0.044 | [4] 0.015 | [5] -0.039

SIN3A (UniProt Q96ST3)
inactive: [1] -0.01 | [2] -0.005 | [3] 0.02 | [4] 0.021 | [5] 0.045

SHFL (UniProt Q9NUL5)
inactive: [1] 0.167 | [2] -0.058 | [3] -0.04 | [4] -0.04

SH3BP2 isoform 4 (UniProt P78314)
inactive: [1] -0.05 | [2] 0.211 | [3] -0.124 | [4] 0.035 | [5] -0.021

SLC20A1 (UniProt Q8WUM9)
inactive: [1] 0.071 | [2] -0.048 | [3] 0.007 | [4] -0.046 | [5] 0.024

Looked up one by one from the entries so far (3):
SH3BP2 isoform 4 (UniProt P78314)
inactive: [1] -0.05 | [2] 0.211 | [3] -0.124 | [4] 0.035 | [5] -0.021

SLC20A1 (UniProt Q8WUM9)
inactive: [1] 0.071 | [2] -0.048 | [3] 0.007 | [4] -0.046 | [5] 0.024

SHFL (UniProt Q9NUL5)
inactive: [1] 0.167 | [2] -0.058 | [3] -0.04 | [4] -0.04

(next part)

SF1 isoform 6 (UniProt Q15637)
inactive: [1] -0.007 | [2] 0.069 | [3] -0.091 | [4] 0.122 | [5] -0.071

SH3GLB2 (UniProt Q9NR46)
inactive: [1] 0.027 | [2] -0.013 | [3] 0.041 | [4] 0.044 | [5] 0.051

SKP1 (UniProt P63208)
inactive: [1] 0.032 | [2] -0.107 | [3] -0.022 | [4] -0.015 | [5] -0.04

SIPA1 (UniProt Q96FS4)
inactive: [1] 0.029 | [2] 0.003 | [3] 0.066 | [4] 0.006 | [5] -0.005

SH3GLB1 isoform 2 (UniProt Q9Y371)
inactive: [1] 0.077 | [2] 0.014 | [3] 0.019 | [4] 0.031 | [5] -0.031

SFXN4 isoform 3 (UniProt Q6P4A7)
inactive: [1] -0.063 | [2] -0.016 | [3] 0.107 | [5] -0.089

SH3KBP1 (UniProt Q96B97)
inactive: [1] -0.02 | [2] 0.055 | [4] -0.029 | [5] -0.03

SFXN1 (UniProt Q9H9B4)
inactive: [1] -0.018 | [2] 0.014 | [3] 0.031 | [4] 0.026 | [5] 0.026

SIRT2 (UniProt Q8IXJ6)
inactive: [1] 0.016 | [2] -0.066 | [3] 0.046 | [4] -0.008 | [5] -0.066

SERBP1 isoform 3 (UniProt Q8NC51)
inactive: [1] 0.227 | [2] -0.028 | [4] 0.07

SLC17A5 (UniProt Q9NRA2)
inactive: [1] -0.173 | [2] 0.008 | [3] -0.176 | [4] 0.014 | [5] 0.008

SF3A1 (UniProt Q15459)
inactive: [1] -0.004 | [2] 0.017 | [3] 0.011 | [4] 0 | [5] -0.037

SHKBP1 (UniProt Q8TBC3)
inactive: [1] 0.016 | [2] 0.02 | [3] 0.077 | [4] -0.027 | [5] 0.007

SERGEF (UniProt Q9UGK8)
inactive: [1] 0.091 | [2] 0.058 | [3] -0.146 | [4] -0.034 | [5] 0.029

SERPINF2 (UniProt P08697)
inactive: [1] 0.208 | [2] 0.02 | [3] -0.073 | [5] 0.057

SERPINC1 (UniProt P01008)
inactive: [1] 0.171 | [2] 0.044 | [3] 0.008 | [4] -0.071 | [5] -0.067
